Values of other authors in patent US20220119431A1, “SALT OF EGFR INHIBITOR, CRYSTAL FORM, AND PREPARATION METHOD THEREFOR” (priority 2019, published 2022).
At least one structure is not confirmed: it was looked up by name or label, or the drawing left a doubt.

Tested on: PC9 (EGFR-C797S/T790M/del19)
Settings: combination therapy with Panitumumab or Cetuximab; cited from earlier work

Which anti-tumor efficacy does the source give for COc1cc(N2CCC(N3CCN(C)CC3)CC2)ccc1Nc1ncc(Cl)c(Nc2ccccc2P(C)(C)=O)n1 [Brigatinib] here?
The anti-tumor efficacy was “good anti-tumor efficacy”.
